We go through four molecules from patent publication US20220025045A1.

Chains of the proteins cited; added tags and fusions are not shown. Lines headed by an entry give the natural chain unless they say otherwise; changes in a name come on top.
UniProt Q8NHL6: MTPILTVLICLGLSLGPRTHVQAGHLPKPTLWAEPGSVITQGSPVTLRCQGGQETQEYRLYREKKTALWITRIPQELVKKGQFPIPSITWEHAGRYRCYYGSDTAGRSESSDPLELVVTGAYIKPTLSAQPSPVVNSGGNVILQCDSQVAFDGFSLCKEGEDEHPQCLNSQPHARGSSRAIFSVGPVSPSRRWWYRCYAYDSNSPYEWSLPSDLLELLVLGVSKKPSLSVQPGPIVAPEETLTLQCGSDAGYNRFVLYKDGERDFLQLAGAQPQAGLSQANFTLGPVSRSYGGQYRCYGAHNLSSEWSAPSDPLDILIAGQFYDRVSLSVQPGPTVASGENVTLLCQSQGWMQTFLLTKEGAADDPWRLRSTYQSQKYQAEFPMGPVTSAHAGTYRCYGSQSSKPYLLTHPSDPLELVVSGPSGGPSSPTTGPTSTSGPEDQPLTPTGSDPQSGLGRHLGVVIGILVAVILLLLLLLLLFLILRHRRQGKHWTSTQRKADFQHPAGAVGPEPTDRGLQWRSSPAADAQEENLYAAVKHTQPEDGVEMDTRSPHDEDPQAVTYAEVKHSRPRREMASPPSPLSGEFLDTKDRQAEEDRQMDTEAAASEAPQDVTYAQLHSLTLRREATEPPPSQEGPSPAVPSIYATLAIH
UniProt P22629: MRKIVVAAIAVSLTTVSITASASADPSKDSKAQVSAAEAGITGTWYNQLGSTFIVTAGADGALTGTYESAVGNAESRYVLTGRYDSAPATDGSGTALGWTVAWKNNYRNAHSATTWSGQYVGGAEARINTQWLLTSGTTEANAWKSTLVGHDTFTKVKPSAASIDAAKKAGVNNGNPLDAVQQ

Results are given in words; binding and its absence hold for the method and conditions named. Some binding calls cover weakened binding; strength is not graded here.

For assay [1], the target named is T1, ILT2-SA tetramer (biotinylated BirA-tagged ILT2 on APC-conjugated streptavidin) (human) (UniProt Q8NHL6+P22629). Description: flow cytometry blocking assay: antibody added to ILT2/APC-streptavidin complexes, then WIL2-NS cells expressing HLA-A2; blocked ligand HLA-A2. For orientation: Flow cytometry measures light scatter and fluorescence of single cells or particles in a stream.

In assay [2] the target is T1, ILT2-SA tetramer (biotinylated BirA-tagged ILT2 on APC-conjugated streptavidin) (human). The assay is described as follows: flow cytometry blocking assay: antibody added to ILT2/APC-streptavidin complexes, then K562 cells expressing HLA-G; blocked ligand HLA-G.
The target is the same in assay [3]. The assay is described as follows: flow cytometry blocking assay: antibody pre-incubated with recombinant ILT2 (tetramer according to Example 6), then added to HLA-G-expressing cells; blocked ligand HLA-G; antibody concentration not shown.
Assay [4] shares this target. Description: flow cytometry blocking assay: antibody pre-incubated with recombinant ILT2 (tetramer according to Example 6), then added to HLA-A2-expressing cells; blocked ligand HLA-A2; antibody concentration not shown.

B1: 48F12 (antibody, V domains shown)
VH: QVQLKESGPGLVAPSQSLSITCTVSGFSLTSYGVSWVRQPPGKGLEWLGIIWGDGSTNYHSALVSRLSISKDNSKSQVFLKLNSLQTDDTATYYCAKPNWDYYAMDYWGQGTSVTVSS
VL: DIQMTQTTSSLSASLGDRVTISCRASQDISNYLNWYQQKVDGTVKLLISYTSRLHSGVPSRFSGSGSGTDYSLTISNLEQEDIATYFCQQGITLPLTFGAGTKLELK
Take B1: the binding entry in assay [1] and in assay [2] was “binds” each time.

B2: 18E1 (antibody, human IgG1, V domains shown)
VH: QVQLQQSGAELVKPGASVRLSCKASGYTFTAHTIHWVKQRSGQGLEWIGWLYPGSGSIKYNEKFKDKATLTADKSSSTVYMELSRLTSEDSAVYFCARHTNWDFDYWGQGTTLTVSS
VL: NIVLTQSPASLAVSLGQRATISCKASQSVDYGGASYMNWYQQKPGQPPKLLIYAASNLESGIPARFSGSGSGTDLTLNIHPVEEEDAAMYYCQQSNEEPWTFGGGTKLEIK
Take B2: the binding result in assay [3] and in assay [4] was “binds” throughout.

B3: 26D8 (antibody, human IgG1, V domains shown)
VH: QVQLQQSGAELVKPGASVKLSCKASGYTFTEHTIHWIKQRSGQGLEWIGWFYPGSGSMKYNEKFKDKATLTADKSSSTVYMELTRLTSEDSAVYFCARHTNWDFDYWGQGTTLTVSS
VL: DIVLTQSPASLAVSLGQRATISCKASQSVDYGGDSYMNWYQQKPGQPPKLLIYAASNLESGIPARFSGSGSGTDLTLNIHPVEEDDAAMYYCQQSNEEPWTFGGGTKLEIK
With B3, the binding entry in assay [3] and in assay [4] was “binds” throughout.

B4: 12D12 (antibody, human IgG1, V domains shown)
VH: QVQLQQPGAELVKPGASVRMSCKASGYTFTSYWVHWVKQRPGQGLEWIGVIDPSDSYTSYNQNFKGKATLTVDTSSKTAYIHLSSLTSEDSAVYFCARGERYDGDYFAMDYWGQGTSVTVSS
VL: DIVMTQSPASLSVSVGETVTITCRASENIYSNLAWYQQKQGKSPQLLVYAATNLADGVPSRFSGSRSGTQYSLKINSLQSEDFGTYYCQHFWNTPRTFGGGTKLEIK
With B4, the binding entry in assay [1], in assay [3], in assay [2] and in assay [4] was “binds” in each case.
